Screen size: about 410,000 compounds; about 310 (0.076%) were called active. Inconclusive means that the source gave no clear call. Such entries were picked first, then a sample of the others. The call rests on the fitted dose curve; in most records, active means well fitted activation curve with a large enough effect; inconclusive means small, poorly fitted or top-dose-only effect, or another doubt; inactive means no such curve, though single readings can be large or run the other way. Potencies of inconclusive entries are doubtful fits and often do not repeat.
These compounds were tested against Parathyroid hormone/parathyroid hormone-related peptide receptor (Homo sapiens) (UniProt Q03431) (assay: qHTS for PTHR1 Agonists: Primary Screen). Settings: HEK293 GP2 PTHR1 cells, GloSensor cAMP luminescence, 1 h; activation: at 115 µM (top of the series) unless noted; series mostly up to 115 µM.
In short: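 HEK-293-derived GP2 cells expressing PTHR1 and a GloSensor cAMP reporter, 3,000/well, plated overnight, given luciferin plus IBMX (each 0.5 mM as added) for 1 h at 37 °C, then compound for 1 h at 37 °C. Luminescence was read after 15 min at room temperature.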
Further: nearly all actives have a fitted effect of over 55% in size.
Potency means the concentration at half of the fitted maximal effect.

Amino acid sequences for entries named in this document (tags omitted). A change or cut given only in a name is not applied to a line headed by its entry.
UniProt Q03431: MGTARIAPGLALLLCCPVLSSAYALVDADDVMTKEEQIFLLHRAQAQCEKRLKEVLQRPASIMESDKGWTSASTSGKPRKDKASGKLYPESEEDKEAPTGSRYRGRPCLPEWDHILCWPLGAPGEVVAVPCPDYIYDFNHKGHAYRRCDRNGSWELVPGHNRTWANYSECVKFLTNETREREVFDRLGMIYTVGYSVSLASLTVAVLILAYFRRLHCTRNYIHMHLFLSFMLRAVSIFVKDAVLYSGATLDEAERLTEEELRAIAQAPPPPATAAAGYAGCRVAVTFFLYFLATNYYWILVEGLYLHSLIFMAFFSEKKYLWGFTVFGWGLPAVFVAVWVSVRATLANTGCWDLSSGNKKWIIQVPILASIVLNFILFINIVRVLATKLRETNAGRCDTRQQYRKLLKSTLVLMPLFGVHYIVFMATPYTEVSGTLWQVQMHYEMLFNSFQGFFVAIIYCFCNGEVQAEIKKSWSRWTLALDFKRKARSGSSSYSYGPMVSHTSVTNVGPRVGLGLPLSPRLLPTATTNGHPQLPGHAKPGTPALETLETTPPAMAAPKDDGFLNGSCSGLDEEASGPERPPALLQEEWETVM

activation, inconclusive:
CN(C)S(=O)(=O)Nc1cc(F)cc(F)c1 0.957% [activator]

activation, inactive:
COc1ccccc1OCC(=O)N/N=C1\CCCCc2ccccc21 -17.1%
COc1ccc(N=C2NC(=O)S/C2=C\c2ccc(N(C)C)cc2)cc1 -18.1%
COc1cc(/C=C2\SC(=S)N(C(Cc3ccccc3)C(=O)O)C2=O)ccc1O (configuration not stated) -9.99%
Cc1cc(C)nc(SCc2ccc([N+](=O)[O-])cc2)n1 -22%

Potency, inconclusive:
Cc1ccc(/C(O)=C2/C(=O)C(=O)N(CCN3CCOCC3)C2c2cccnc2)cc1 (configuration not stated) 1.12 µM [activator, full curve, poor fit]
COc1ccc(S(=O)(=O)NCCc2csc(-c3cccc(F)c3)n2)cc1OC 17.8 µM [activator, partial curve, poor fit]
CCCCOc1ccc(Cl)cc1CSc1nnc(CC)n1N 15.8 µM [activator, partial curve, poor fit]
COc1ccc(CN(Cc2ccc(C(=O)O)cc2)C(=S)Nc2cccc(C)c2)cc1OC 89.1 µM [activator, single point]
COC(=O)c1ccccc1NC(=O)c1nn(C)c2c1COc1ccccc1-2 112 µM [activator, partial curve, poor fit]
O=C(CSc1cccc2cccnc12)OCC(=O)c1ccccc1 35.5 µM [activator, single point]
CCCc1cc(=O)[nH]c2nnc(SCC(=O)Nc3ccc4c(c3)OCCO4)n12 44.7 µM [activator, partial curve, poor fit]
CN(C)CCCN(C(=O)c1cc(-c2cccs2)nc2ccccc12)c1nc2ccc(F)cc2s1 2.51 µM [activator, full curve]
CC(CN1CCCC1)OC(=O)COc1ccccc1 (configuration not stated) 31.6 µM [activator, partial curve, poor fit]
Nc1ncnc(Nc2ccccn2)c1[N+](=O)[O-] 39.8 µM [activator, partial curve, poor fit]
Cc1cc(NC(=O)C2CCN(S(=O)(=O)c3cccs3)CC2)no1 112 µM [activator, single point]

Random excerpt: two entries already listed.
Potency, inconclusive:
Cc1cc(NC(=O)C2CCN(S(=O)(=O)c3cccs3)CC2)no1 112 µM [activator, single point]
COc1ccc(S(=O)(=O)NCCc2csc(-c3cccc(F)c3)n2)cc1OC 17.8 µM [activator, partial curve, poor fit]

Next part:

outcome, inactive:
CC(C)(O)[C@@H]1CC[C@@](C)(C2CC[C@]3(C)C2[C@H](O)CC2[C@@]4(C)CC[C@H](O)C(C)(C)C4[C@@H](O[C@H]4O[C@@H](CO)[C@H](O)[C@@H](O)[C@@H]4O[C@@H]4O[C@H](CO)[C@@H](O)[C@H](O)[C@H]4O)C[C@]23C)O1 (stereo in doubt)
